# Earlier results as cited in patent US20250064799A1, “ORAL FORMULATIONS OF LEVOSIMENDAN FOR TREATING PULMONARY HYPERTENSION WITH HEART FAILURE WITH PRESERVED EJECTION FRACTION” (Tenax Therapeutics, Inc., priority 2021, published 2025).
# Some results were stated once for a whole list of compounds, not compound by compound.
# Tested on: phosphodiesterase-3 (PDE3)
# Conditions: classical PDE inhibitors; cited from earlier work
smiles,measurement,value
Nc1cc(-c2ccncc2)c[nH]c1=O [amrinone],PDE3 vs. PDE4 selectivity,≥ 17 fold
